Experimental data published in patent US4782043A (Merck & Co., Inc., priority 1985, dated 1988).

Test: general procedure: Boc solid-phase peptide synthesis; BOC-Phe esterified to 2% cross-linked polystyrene-divinylbenzene; dicyclohexylcarbodiimide with 1-hydroxybenzotriazole hydrate
Settings: cyclisation step, TLC

Substance	final HPLC purity (side-chain lactam ring, sequence written open) [%]	final HPLC purity [%]
Isobutyryl-L-Histidyl-L-Prolyl-L-Phenylalanyl-L-Lysyl-(3S,4S)-Statyl-L-Leucyl-L-Phenylalanine	99.8	
N-isobutyryl-L-Histidyl-L-Prolyl-L-Phenylalanyl-L-Homolysyl-(3S,4S)-Statyl-L-Leucyl-L-Phenylalanyl		88.9
